Data taken from PMC2755476, “The Sam domain of the lipid phosphatase Ship2 adopts a common model to interact with Arap3-Sam and EphA2-Sam” (BMC Structural Biology, 2009).

T1: Sam domain of Ship2 (Src homology 2 domain-containing phosphoinositide-5-phosphatase 2) (UniProt O15357)
T1 sequence: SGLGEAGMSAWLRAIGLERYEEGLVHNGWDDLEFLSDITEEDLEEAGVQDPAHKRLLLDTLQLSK


Experiments:
[1] = target: T1, Sam domain of Ship2 (Src homology 2 domain-containing phosphoinositide-5-phosphatase 2); assay: NMR titration; 2D [1H,15N]-HSQC chemical shift perturbation; 15N Ship2-Sam (200 uM) titrated with unlabeled Arap3-Sam (50-233 uM), and 15N Arap3-Sam titrated with unlabeled Ship2-Sam (50, 100, 200 uM); both purified
[2] = target: T1, Sam domain of Ship2 (Src homology 2 domain-containing phosphoinositide-5-phosphatase 2); assay: NMR 15N R1/R2 relaxation (rotational correlation time); 25 C, 600 MHz; 15N Arap3-Sam alone at 150 uM and 1.4 mM; 15N Ship2-Sam (1 mM) with unlabeled Arap3-Sam (2 mM); both purified
[3] = target: Sam domain of Arap3 (Arap3-Sam), construct with N-terminal 6His-tag (human); assay: NMR titration; 2D [1H,15N]-HSQC chemical shift perturbation; 15N Ship2-Sam (200 uM) titrated with unlabeled Arap3-Sam (50-233 uM), and 15N Arap3-Sam titrated with unlabeled Ship2-Sam (50, 100, 200 uM); both purified

| binding [1] | binding [2] | binding [3] | Molecule |
| --- | --- | --- | --- |
| binds | binds |  | Sam domain of Arap3 (Arap3-Sam), construct with N-terminal 6His-tag (human) (domain or fragment) |
|  |  | binds | Sam domain of Ship2 (Src homology 2 domain-containing phosphoinositide-5-phosphatase 2) (domain or fragment, UniProt O15357 1194-1258) SGLGEAGMSAWLRAIGLERYEEGLVHNGWDDLEFLSDITEEDLEEAGVQDPAHKRLLLDTLQLSK |

Results are given in words; binding and its absence hold for the method and conditions named. A result given as binding can be weak or reduced; the word gives no strength.
